Experimental data: PubChem BioAssay AID1259308 (NCATS, 2017)
The deposit covers about 59,000 reagents; below is a part drawn at random. In the full data, about 1,510 (2.6%) were called active. 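Calls use total luciferase alone and ignore viability, so some active siRNAs may act by altering cell number.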 Unmarked entries are inactive. The numbers tell different reagents against one gene apart.

Test: 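Candidate targets for better recombinant protein yield in mammalian cells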 (primary screen)
Cells: human HEK293 embryonic kidney cells stably expressing firefly luciferase (HEK-CMV-Luc2-Hygro)
Reagents: single siRNA against human genes, 0.8 pmol siRNA per well
Duration: 72 h
Measurement: 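Reporter luminescence and viable-cell signal on separate replicate plates, given as percent of non-targeting control and median/MAD z-scores, plus per-cell luciferase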
Scale: total luciferase, z-score and total luciferase, % of control: higher = more reporter protein produced; luciferase per cell, z-score: higher = more reporter output per viable cell; viable cells, % of control: higher = more viable cells
Rule for the call: 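Active when the median/MAD z-score for overall luciferase is greater than 3; a gene was taken forward for validation with new siRNAs if at least two of its three siRNAs passed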
Meaning of the calls: active = raised luciferase; inactive = no rise

| target | siRNA no. | total luciferase, z-score | total luciferase, % of control | luciferase per cell, z-score | viable cells, % of control |
| --- | --- | --- | --- | --- | --- |
| ARHGAP11B (Rho GTPase activating protein 11B) | 1 | -1.17 | 58.7 | -1.27 | 91.5 |
| ARHGAP11B (Rho GTPase activating protein 11B) | 2 | 0.08 | 83.5 | -0.387 | 103 |
| ARHGAP11B (Rho GTPase activating protein 11B) | 3 | -0.889 | 64.2 | -0.433 | 80.4 |
| CTRL (chymotrypsin like) | 1 | 0.297 | 87.8 | -0.223 | 104 |
| CTRL (chymotrypsin like) | 2 | -0.481 | 72.3 | -0.142 | 83.9 |
| CTRL (chymotrypsin like) | 3 | 3.1 (active) | 143 | 1.79 | 100 |
| OR2T10 (olfactory receptor family 2 subfamily T member 10) | 1 | 1.07 | 103 | 1.27 | 82.7 |
| OR2T10 (olfactory receptor family 2 subfamily T member 10) | 2 | 1.51 | 112 | 1.27 | 89.4 |
| OR2T10 (olfactory receptor family 2 subfamily T member 10) | 3 | -0.417 | 73.6 | -0.433 | 92.2 |
| FCN1 (ficolin 1) | 1 | -0.932 | 63.3 | -1.04 | 93.1 |
| FCN1 (ficolin 1) | 2 | 0.961 | 101 | 0.447 | 100 |
| FCN1 (ficolin 1) | 3 | 2.07 | 123 | 1.97 | 81.9 |
| KCNE2 | 1 | 1.59 | 114 | 1.55 | 84.3 |
| KCNE2 | 2 | -2.35 | 35.2 | -1.33 | 55.9 |
| KCNE2 | 3 | 1.96 | 121 | 1.38 | 94 |

Part of the list above, set out differently.
{"target": "KCNE2", "siRNA no.": 1, "total luciferase, z-score": 1.59, "total luciferase, % of control": 114, "luciferase per cell, z-score": 1.55, "viable cells, % of control": 84.3}
{"target": "KCNE2", "siRNA no.": 2, "total luciferase, z-score": -2.35, "total luciferase, % of control": 35.2, "luciferase per cell, z-score": -1.33, "viable cells, % of control": 55.9}

Further entries follow:
| target | siRNA no. | total luciferase, z-score | total luciferase, % of control | luciferase per cell, z-score | viable cells, % of control |
| --- | --- | --- | --- | --- | --- |
| MAPK14 (mitogen-activated protein kinase 14) | 1 | 0.725 | 96.3 | 1.01 | 82.6 |
| MAPK14 (mitogen-activated protein kinase 14) | 2 | -1.06 | 60.8 | -0.544 | 78.4 |
| MAPK14 (mitogen-activated protein kinase 14) | 3 | -0.847 | 65 | 0.564 | 62.6 |
| RDH12 (retinol dehydrogenase 12) | 1 | 1.91 | 120 | 0.902 | 106 |
| RDH12 (retinol dehydrogenase 12) | 2 | 0.946 | 101 | 0.471 | 99.4 |
| RDH12 (retinol dehydrogenase 12) | 3 | 0.18 | 85.5 | -0.729 | 116 |
| CYB5R3 (cytochrome b5 reductase 3) | 1 | 2.7 | 136 | 3.5 | 60.2 |
| CYB5R3 (cytochrome b5 reductase 3) | 2 | 1.07 | 103 | 0.72 | 95.4 |
| CYB5R3 (cytochrome b5 reductase 3) | 3 | 1.05 | 103 | 1.78 | 71.9 |
